Binding data for 1 molecule are collected here from article PMC9845910.

No constants are given. Whether binding was seen depends on the method and setting. Binding seen in cells or lysates may run through a third protein. Some binding calls cover weakened binding; strength is not graded here. Tags and fused reporters may be left off the sequences shown.

For the assay, the target named is T1, GFP-Tht1 (twin horsetails protein 1, meiotic nuclear fusion protein) (S. pombe) (UniProt Q09684).
T1 sequence (chain, S-palmitoylated at cysteine 65 and 78 (MALDI MS/MS of the pulled-down protein)): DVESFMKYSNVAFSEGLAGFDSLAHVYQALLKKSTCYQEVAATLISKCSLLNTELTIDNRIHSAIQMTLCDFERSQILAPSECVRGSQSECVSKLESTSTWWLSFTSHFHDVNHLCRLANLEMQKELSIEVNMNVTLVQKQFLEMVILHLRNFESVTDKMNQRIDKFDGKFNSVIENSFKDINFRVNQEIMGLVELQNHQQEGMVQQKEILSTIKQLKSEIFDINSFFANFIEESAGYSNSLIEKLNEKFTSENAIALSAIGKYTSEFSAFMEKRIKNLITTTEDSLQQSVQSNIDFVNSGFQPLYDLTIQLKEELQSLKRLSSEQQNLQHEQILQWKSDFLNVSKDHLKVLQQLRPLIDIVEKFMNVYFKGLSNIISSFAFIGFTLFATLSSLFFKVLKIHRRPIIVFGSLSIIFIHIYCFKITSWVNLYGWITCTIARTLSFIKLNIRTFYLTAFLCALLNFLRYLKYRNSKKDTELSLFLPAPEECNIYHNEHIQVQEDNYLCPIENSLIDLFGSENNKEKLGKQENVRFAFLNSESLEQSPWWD
Put plainly: co-IP; extracts of Sey1-flag strains expressing GFP-Tht1 or GFP; GFP-Trap agarose beads; NP-40 lysis buffer (1% NP-40, 150 mM NaCl, 2 mM EDTA); blots with anti-GFP and anti-flag.

B1: Sey1-flag (protein, UniProt Q9UTE0 1-762)
chain: MSTASNRVSTQIVDEHKQFNNELPKFMQSVGLLDAGFNYHVVAVLGSQSTGKSTLLNNLFGTSFSVMDASKRQQTTKGIWLSKANNSPILVMDVEGTDGRERGEDQDFERKSALFSISTSEVIIVNMWENQVGLYQGSNMALLKTVLEVNLQLFHNKKERCLLQFVIRDFLGNTSMENLADTIMTDLNNIWASLSKPEGFENSVINDFFDVGFTGLPHKILCSDAFSEAVDSLRERFVDNNNSDYIFNVSYHKKIPADGFSLYTREIWDTIENNKDLDLPTQQQLLAQYRCDEIITEVMEPFSTACTILQKEFLPGNLCKDLPTKLLNMFETVIEAYDRQASRYNVHIYQKKKQELIASVDSHLYVFFQAQLNALHKELIKSFFDASNEFPSDTPFKESSSIKINELVNKMREEGESLSLPHVHWDVDPFILKLSEELTQNSETLCKEKLKEKLEELFTGFEFEVSEAVEVAFQKLSHNVWDTLLNEFLAAQNTTIEKIKNIVPFYVDIDDTKTTEEYIINFKKNSWLFFRKKIDSEMSEVLLQQRLRVYFEELFRYDSDGMPKLWKKSGTIDRDYRESLTKTLDLINVLASIKVSDGNYPDLNVDIKTLEPEYTSPASFFTILNRRRVSDISVNFKRSADLIFMDCKRSVINTTTRIPPYFWVLLIVLGWNEFMAILRNPFVFMILMFGGTVVYGLYISGLIWPAKMVLERATNNLVDLATDRFSNTYQEQVQQRAMQRTEKSGSPVASADDAEAEKTALS
B1: the binding result is “binds”.
